From US20180353564A1 (FEINSTEIN INSTITUTE FOR MEDICAL RESEARCH, published 2018)
No constants are given. Whether binding was seen depends on the method and setting. Some results given as binding are weak or reduced against the parent protein; the word gives no strength.

Protein sequences, listed by entry. Tags and fused reporters are not part of them. Residues count along the entry.
UniProt O00206, residues 24-631: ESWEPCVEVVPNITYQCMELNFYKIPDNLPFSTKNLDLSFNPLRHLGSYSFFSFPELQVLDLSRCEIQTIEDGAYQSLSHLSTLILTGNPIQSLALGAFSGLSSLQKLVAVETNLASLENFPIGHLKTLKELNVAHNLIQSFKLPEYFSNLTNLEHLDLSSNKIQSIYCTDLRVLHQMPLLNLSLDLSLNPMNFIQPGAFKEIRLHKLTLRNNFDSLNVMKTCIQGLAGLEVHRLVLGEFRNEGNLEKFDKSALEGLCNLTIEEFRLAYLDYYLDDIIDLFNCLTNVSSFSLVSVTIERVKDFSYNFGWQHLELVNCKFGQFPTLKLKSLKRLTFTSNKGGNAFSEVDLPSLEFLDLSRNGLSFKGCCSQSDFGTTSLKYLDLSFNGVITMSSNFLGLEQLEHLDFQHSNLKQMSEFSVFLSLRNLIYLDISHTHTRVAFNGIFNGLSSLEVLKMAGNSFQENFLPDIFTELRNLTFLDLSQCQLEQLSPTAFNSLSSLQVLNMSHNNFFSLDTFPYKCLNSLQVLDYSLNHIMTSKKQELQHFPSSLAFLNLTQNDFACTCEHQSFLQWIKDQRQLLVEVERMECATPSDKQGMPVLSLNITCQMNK

Target: T1, human TLR4 (human, UniProt O00206 24-631, limits assumed)
T1 construct: also called Toll-like receptor 4
Experiment: SPR (BIAcore), TLR4 on the chip

B1: human MD2 (receptor, UniProt Q9Y6Y9 17-160, looked up)
chain: EAQKQYWVCNSSDASISYTYCDKMQYPISINVNPCIELKRSKGLLHIFYIPRRDLKQLYFNLYITVNTMNLPKRKEVICRGSDDDYSFCRALKGETVNTTISFSFKGIKFSKGKYKCVVEAISGSPEEMLFCLEFVILHQPNSN
notes: also called myeloid differentiation factor 2; myeloid differentiation protein 2
Question: B1 was tested. Which binding did it give?
Answer: Its binding is “binds”.
